Laboratory results reported in PubChem BioAssay AID248 (DTP/NCI, 2004).
The list is a part of this screen's results and no random one: it is rich in T/C values a quarter to a half above the control, in often repeated tests (any T/C) and in doses without a T/C. Other doses and runs of a compound stand elsewhere. T/C is the treated group as % of the vehicle group. Some doses have a count of surviving animals in place of a T/C: the source holds a T/C of zero for them, seemingly a mark for toxic or unscored doses. Some doses without a T/C left all or most animals alive at the check, yet need not have been tolerated: survival well below the control is almost never listed, so the zero probably covers shortened survival too. Survivors were counted at the toxicity check, usually on the fifth day, unless a day is given; later deaths do not show. Schedule codes are those of the source, taken here to give the interval after Q, in days (D) or hours (H), and the number of doses after X. Some entries were tested several times; the values are given in rising order. For survival time, the PubChem record calls one and a half times the control and up active, and a quarter to a half above the control has no call in these data; cut-offs in other NCI protocols can differ. Some T/C values carry the count of animals alive at the toxicity check (mostly the fifth day); where none is given, no animal had died by that day. Some schedules carry Z or #; the key to these is not given.

Tested on: L1210 leukemia ip in BDF1 mice, survival T/C
Experiment: NCI In Vivo Anticancer Drug Screen. Data for tumor model L1210 Leukemia (intraperitoneal) in B6D2F1 (BDF1) mice
Conditions: T/C endpoint: mean survival time, higher T/C = longer survival
[1] = dose: 400.0 mg/kg/injection, schedule: Q04DX002 (ip), vehicle: Klucel (hydroxypropylcellulose) (HPC)
[2] = dose: 400.0 mg/kg/injection, schedule: Q04DX003 (ip), vehicle: saline with Tween-80
[3] = dose: 400.0 mg/kg/injection, schedule: Q01DX001 (ip), vehicle: saline
[4] = dose: 400.0 mg/kg/injection, schedule: Q04DX003 (ip), vehicle: Klucel (hydroxypropylcellulose) (HPC)

With `COc1cc2c(c(OC)c1OC)-c1ccc(OC)c(=O)cc1[C@@H](NC(=O)c1ccccc1)CC2` the T/C (dose: 1.1 mg/kg/injection, schedule: Q01DX Z (ip), vehicle: methylcellulose (MC)) was 135 % of control [5 of 6 alive], the T/C (dose: 1.7 mg/kg/injection, schedule: Q01DX Z (ip), vehicle: methylcellulose (MC)) was 129 % of control [5 of 6 alive] and the T/C (dose: 3.7 mg/kg/injection, schedule: Q01DX015 (ip), vehicle: carboxymethylcellulose (CMC)) was 131 % of control. The T/C (dose: 5.6 mg/kg/injection, schedule: Q01DX015 (ip), vehicle: carboxymethylcellulose (CMC)) was 129 % of control, the T/C (dose: 8.4 mg/kg/injection, schedule: Q01DX015 (ip), vehicle: carboxymethylcellulose (CMC)) was 143 % of control and the survivor count (dose: 14.4 mg/kg/injection, schedule: Q01DX015 (ip), vehicle: carboxymethylcellulose (CMC)) was 0 of 6 and 1 of 6. For the same molecule, the T/C (dose: 18.0 mg/kg/injection, schedule: Q01DX001 (ip), vehicle: carboxymethylcellulose (CMC)) was 127 % of control, the survivor count (dose: 24.0 mg/kg/injection, schedule: Q01DX015 (ip), vehicle: carboxymethylcellulose (CMC)) was 0 of 6 and the T/C (dose: 40.0 mg/kg/injection, schedule: Q01DX001 (ip), vehicle: carboxymethylcellulose (CMC)) was 127 and 135 % of control [3 of 4 alive]. For the same molecule, the survivor count (dose: 40.0 mg/kg/injection, schedule: Q01DX015 (ip), vehicle: carboxymethylcellulose (CMC)) was 0 of 6, the survivor count (dose: 50.0 mg/kg/injection, schedule: Q01DX001 (ip), vehicle: carboxymethylcellulose (CMC)) was 2 of 4 and the survivor count (dose: 60.0 mg/kg/injection, schedule: Q01DX001 (ip), vehicle: carboxymethylcellulose (CMC)) was 0 of 4. The survivor count (dose: 80.0 mg/kg/injection, schedule: Q01DX001 (ip), vehicle: carboxymethylcellulose (CMC)) was 1 of 4, the survivor count (dose: 100.0 mg/kg/injection, schedule: Q01DX001 (ip), vehicle: carboxymethylcellulose (CMC)) was 1 of 4 and the survivor count (dose: 200.0 mg/kg/injection, schedule: Q01DX001 (ip), vehicle: carboxymethylcellulose (CMC)) was 0 of 4. The survivor count (dose: 400.0 mg/kg/injection, schedule: Q01DX001 (ip), vehicle: carboxymethylcellulose (CMC)) was 0 of 4.

In the case of `CCCCCC(CN(C)C)C(=O)/C=C/c1ccc(Cl)cc1` (stereo not drawn), the survivor count (dose: 100.0 mg/kg/injection, schedule: Q04DX003 (sc), vehicle: steroid suspending solution) is reported as 6 of 6, the survivor count (dose: 170.0 mg/kg/injection, schedule: Q01DX009 (sc), vehicle: other) is reported as 0 of 6 and the survivor count (dose: 200.0 mg/kg/injection, schedule: Q04DX003 (sc), vehicle: steroid suspending solution) is reported as 4 of 6. The survivor count (dose: 400.0 mg/kg/injection, schedule: Q01DX001 (sc), vehicle: steroid suspending solution) was 0 of 6.

`CCN(CC)CCCC(C)Nc1cc(C)nc2ccc(N(C)C)cc12` (stereo not drawn) was tested, and the survivor count (dose: 100.0 mg/kg/injection, schedule: Q01DX009 (ip), vehicle: saline with Tween-80) was 2 of 6, the survivor count (dose: 200.0 mg/kg/injection, schedule: Q01DX009 (ip), vehicle: saline with Tween-80) was 0 of 6 and the survivor count (dose: 400.0 mg/kg/injection, schedule: Q01DX009 (ip), vehicle: saline with Tween-80) was 0 of 6.

With `CC1=CC(=O)C2=C(C)CCC3C(C)C(=O)OC3C12` (stereo not drawn) the T/C (dose: 100.0 mg/kg/injection, schedule: Q01DX001 (ip), vehicle: saline with Tween-80) was 127 % of control.

`C[N+](C)(C)CCC1CCCCC1` was tested, and the survivor count (dose: 150.0 mg/kg/injection, schedule: Q01DX001 (ip), vehicle: saline) was 0 of 6 and the survivor count (dose: 300.0 mg/kg/injection, schedule: Q01DX001 (ip), vehicle: saline) was 0 of 6.

In the case of `CCOC(=O)/C(C(N)=O)=C(/C)C=C(C)C`, the survivor count (dose: 40.0 mg/kg/injection, schedule: Q01DX001 (ip), vehicle: acetone) is reported as 0 of 6, the survivor count (dose: 75.0 mg/kg/injection, schedule: Q01DX001 (ip), vehicle: acetone) is reported as 0 of 6 and the survivor count (dose: 150.0 mg/kg/injection, schedule: Q01DX001 (ip), vehicle: acetone) is reported as 0 of 6. For the same molecule, the survivor count (dose: 300.0 mg/kg/injection, schedule: Q01DX001 (ip), vehicle: acetone) was 0 of 6.

`CCN(CC)CCOC(=O)c1[nH]cnc1/N=N/N(C)C1CCCCC1` was tested, and the survivor count (dose: 400.0 mg/kg/injection, schedule: Q01DX001 (ip), vehicle: other) was 0 of 4.

For `Nc1ncnc(N)c1NC(=O)/C=C/c1ccccc1`, the survivor count (dose: 400.0 mg/kg/injection, schedule: Q01DX001 (ip), vehicle: saline with Tween-80) was 3 of 6.

`O=P(O)(CP(=O)(c1ccccc1)c1ccccc1)c1ccccc1` was tested, and the survivor count [1] was 0 of 3.

In the case of `CC(N)Cc1cn(C)c2ccccc12` (stereo not drawn), the survivor count (dose: 200.0 mg/kg/injection, schedule: Q01DX009 (ip), vehicle: saline) is reported as 0 of 6, the survivor count (dose: 200.0 mg/kg/injection, schedule: Q04DX003 (ip), vehicle: saline) is reported as 3 of 4 and the survivor count (dose: 400.0 mg/kg/injection, schedule: Q01DX009 (ip), vehicle: saline) is reported as 0 of 6. The survivor count (dose: 400.0 mg/kg/injection, schedule: Q04DX003 (ip), vehicle: saline) was 0 of 4.

In the case of `CC1([CH2][Hg][Cl])Cc2ccccc2O1` (stereo not drawn), the survivor count (dose: 12.5 mg/kg/injection, schedule: Q04DX003 (ip), vehicle: saline with Tween-80) is reported as 4 of 6, the survivor count (dose: 25.0 mg/kg/injection, schedule: Q04DX003 (ip), vehicle: saline with Tween-80) is reported as 1 of 6 and the survivor count (dose: 100.0 mg/kg/injection, schedule: Q04DX003 (ip), vehicle: saline with Tween-80) is reported as 0 of 6. For the same molecule, the survivor count (dose: 200.0 mg/kg/injection, schedule: Q04DX003 (ip), vehicle: saline with Tween-80) was 0 of 6 and the survivor count [2] was 0 of 6.

With `CCOC(=O)C(C)Cl` (stereo not drawn) the survivor count (dose: 400.0 mg/kg/injection, schedule: Q01DX009 (ip), vehicle: Klucel (hydroxypropylcellulose) (HPC)) was 2 of 6.

`C=CCSc1cccc(Cl)c1` was tested, and the survivor count [3] was 3 of 6.

`O=C(O)c1c(Cl)c(Cl)c(Cl)c(C(=O)O)c1Cl` was tested, and the survivor count [4] was 3 of 6.

For `C/C(C(=O)O)=C(/Cl)c1c(C)cc(C)c(Br)c1C`, the survivor count (dose: 400.0 mg/kg/injection, schedule: Q01DX009 (ip), vehicle: gum acacia) was 0 of 6.

With `O=[N+]([O-])c1ccccc1OCCBr` the survivor count [4] was 6 of 6.

`CCC(C)(CC)NC(C)=O` was tested, and the survivor count [4] was 1 of 6.

With `CC(C)(C)NCC1C(c2ccccc2)C1c1ccccc1` (stereo not drawn) the survivor count (dose: 100.0 mg/kg/injection, schedule: Q04DX002 (ip), vehicle: Klucel (hydroxypropylcellulose) (HPC)) was 0 of 3 and 3 of 3, the survivor count (dose: 200.0 mg/kg/injection, schedule: Q04DX002 (ip), vehicle: Klucel (hydroxypropylcellulose) (HPC)) was 0 of 3 and the survivor count [1] was 0 of 3.

In the case of `CN1C(=O)CC2(CCN(CCCC(=O)c3ccc(F)cc3)CC2)C1=O`, the T/C (dose: 25.0 mg/kg/injection, schedule: Q01DX009 (ip), vehicle: saline) is reported as 126 and 129 % of control, the survivor count (dose: 50.0 mg/kg/injection, schedule: Q01DX009 (ip), vehicle: saline) is reported as 2 of 6 and the survivor count (dose: 100.0 mg/kg/injection, schedule: Q01DX009 (ip), vehicle: saline) is reported as 0 of 6. The survivor count (dose: 200.0 mg/kg/injection, schedule: Q04DX003 (ip), vehicle: alcohol) was 5 of 6 and the survivor count (dose: 400.0 mg/kg/injection, schedule: Q04DX003 (ip), vehicle: alcohol) was 5 of 6.

With `Cc1ccc(Cl)nn1` the survivor count [3] was 0 of 6.

`NNc1cnc2ccccc2n1` was tested, and the survivor count (dose: 200.0 mg/kg/injection, schedule: Q01DX009 (ip), vehicle: saline sonified) was 5 of 6 and the survivor count (dose: 400.0 mg/kg/injection, schedule: Q01DX009 (ip), vehicle: saline sonified) was 5 of 6.

With `CC1(C)N=C(N)N=C(N)N1c1cccc(C(=O)O)c1` the survivor count (dose: 100.0 mg/kg/injection, schedule: Q01DX001 (ip), vehicle: saline) was 1 of 6, the survivor count (dose: 200.0 mg/kg/injection, schedule: Q01DX001 (ip), vehicle: saline) was 2 of 6 and the survivor count [3] was 0 of 6.

For `CSc1ccc(OC(=O)Nc2cccc(F)c2)cc1`, the T/C [4] was 134 % of control.

In the case of `CCCNC(c1ccccc1)=[N+]1C(C)CCCC1C` (stereo not drawn), the survivor count (dose: 50.0 mg/kg/injection, schedule: Q04DX002 (ip), vehicle: saline) is reported as 0 of 3, the survivor count (dose: 100.0 mg/kg/injection, schedule: Q04DX002 (ip), vehicle: saline) is reported as 3 of 3 and the survivor count (dose: 200.0 mg/kg/injection, schedule: Q04DX002 (ip), vehicle: saline) is reported as 3 of 3. For the same molecule, the survivor count (dose: 400.0 mg/kg/injection, schedule: Q04DX002 (ip), vehicle: saline) was 3 of 3.

For `O=C1CCC(C(=O)O)N1` (stereo not drawn), the survivor count [2] was 0 of 6.
